The source of these data is publication doi:10.1101/438481.

Results are given in words; binding and its absence hold for the method and conditions named. For some assays here: Where a sequence is shown, tags or fusion partners need not be part of it.

The target of one test is T1, Vps24 (yeast), P36095.
T1 chain: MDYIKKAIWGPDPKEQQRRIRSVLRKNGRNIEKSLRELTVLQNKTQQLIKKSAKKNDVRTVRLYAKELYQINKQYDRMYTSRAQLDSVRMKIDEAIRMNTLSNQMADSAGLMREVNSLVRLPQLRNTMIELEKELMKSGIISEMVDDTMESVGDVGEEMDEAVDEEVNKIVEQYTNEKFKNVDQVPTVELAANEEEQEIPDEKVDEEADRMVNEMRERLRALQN
Nature of the test: SEC. The conditions noted are these: remark: other sources report otherwise.

The target in test [1] is T2, Vps20 (Saccharomyces cerevisiae), Q04272.
T2 chain: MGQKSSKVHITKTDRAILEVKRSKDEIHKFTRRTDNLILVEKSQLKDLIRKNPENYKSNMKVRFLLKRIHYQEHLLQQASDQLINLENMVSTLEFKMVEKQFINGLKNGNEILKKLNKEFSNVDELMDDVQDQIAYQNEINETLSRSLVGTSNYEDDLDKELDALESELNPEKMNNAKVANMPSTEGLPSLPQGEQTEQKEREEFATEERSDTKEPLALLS
Put plainly: SEC. Particulars: remark: other sources report otherwise.

B1: Vps24, P36095 1-224 (protein)
chain: MDYIKKAIWGPDPKEQQRRIRSVLRKNGRNIEKSLRELTVLQNKTQQLIKKSAKKNDVRTVRLYAKELYQINKQYDRMYTSRAQLDSVRMKIDEAIRMNTLSNQMADSAGLMREVNSLVRLPQLRNTMIELEKELMKSGIISEMVDDTMESVGDVGEEMDEAVDEEVNKIVEQYTNEKFKNVDQVPTVELAANEEEQEIPDEKVDEEADRMVNEMRERLRALQN
With B1, in the test with Vps24 (yeast), P36095, the binding result is “no binding”.

B2: Vps20, Q04272 1-221 (protein)
chain: MGQKSSKVHITKTDRAILEVKRSKDEIHKFTRRTDNLILVEKSQLKDLIRKNPENYKSNMKVRFLLKRIHYQEHLLQQASDQLINLENMVSTLEFKMVEKQFINGLKNGNEILKKLNKEFSNVDELMDDVQDQIAYQNEINETLSRSLVGTSNYEDDLDKELDALESELNPEKMNNAKVANMPSTEGLPSLPQGEQTEQKEREEFATEERSDTKEPLALLS
Turning to B2, in test [1], the binding result is recorded as “no binding”.
